# Where a name gives a salt, the structure may show the parent alone.
# Assay: Odor threshold of perfuming compounds in air
# [1] = Table 8, perfuming compounds having a sweet note
# [2] = Table 9, perfuming compounds having a gourmand note
# [3] = Table 5, perfuming compounds having a green note
# [4] = perfuming compounds having a fruity note (Table 6)
# [5] = Table 6, perfuming compounds having a fruity note
# [6] = Table 10, perfuming compounds having a woody note
compound,measurement,setting,value
CCCC=C1OC(=O)c2ccccc21 [3-BUTYLIDENE-1-BENZO[C]FURANONE],Odor Threshold (μg/l air),[1],8.65E−04 μg/l air
same,Odor Threshold (μg/l air),[2],8.65E−04 μg/l air
CCCCCCC#CC(=O)OC [METHYL 2-NONYNOATE],Odor Threshold,[3],1.60E−03 μg/l air
CC1CC(C)(c2ccccc2)CO1 (racemic),Odor Threshold,[3],5.04E−04 μg/l air
same,Odor Threshold,[4],5.04E−04 μg/l air
CC/C=C\CCOC(=O)C(C)C [(Z)-3-HEXENYL ISOBUTYRATE],Odor Threshold,[3],4.54E−02 μg/l air
same,Odor Threshold,[4],4.54E−02 μg/l air
CCC(CC(C)CC)=NO (stereo not drawn) [5-METHYL-3-HEPTANONEOXIME],Odor Threshold (μg/l air),[2],8.80E−03 μg/l air
"(2,2-DIMETHOXYETHYL)BENZENE",Odor Threshold,[3],4.55E−02 μg/l air
CCCCCCCC1CCCC(=O)O1 (racemic) [(+−)-6-heptyltetrahydro-2H-pyran-2-one],Odor Threshold (μg/l air),[5],1.27E−04 μg/l air
same,Odor Threshold (μg/l air),[1],1.27E−04 μg/l air
same,Odor Threshold (μg/l air),[2],1.27E−04 μg/l air
CC1(C)C2C[C@H]3CCC(=O)C=C3[C@@H]1C2,Odor Threshold (μg/l air),[6],2.86E−05 μg/l air
CC(C)=CCCC(C)C=O (racemic),Odor Threshold,[4],2.11E−04 μg/l air
CCCC(C)=CCOC(C)=O (mixture of isomers),Odor Threshold,[3],2.73E−02 μg/l air
same,Odor Threshold,[4],2.73E−02 μg/l air
"3,7-DIMETHYL-2,6-NONADIENENITRILE (A) + 3,7-DIMETHYL-3,6-NONADIENENITRILE (B)",Odor Threshold,[3],3.10E−04 μg/l air
OCCc1ccccc1 [2-PHENYLETHANOL],Odor Threshold (μg/l air),[1],1.02E−04 μg/l air
same,Odor Threshold (μg/l air),[2],1.02E−04 μg/l air
same,Odor Threshold,[4],1.02E−04 μg/l air
COC(C)(C)CCCC(C)C(C)O (racemic),Odor Threshold (μg/l air),[6],2.66E−02 μg/l air
CC1(C)CCC[C@@]2(C)[C@H]1CC[C@@]1(C)OCC[C@@H]21,Odor Threshold (μg/l air),[6],2.16E−03 μg/l air
CC1COCc2cc3c(cc21)C(C)(C)C(C)C3(C)C (racemic),Odor Threshold (μg/l air),[5],2.62E−04 μg/l air
C=CC(C)CC(=O)CC(C)C (racemic),Odor Threshold,[4],2.78E−01 μg/l air
C=CCOC(=O)CCCCCC [ALLYL HEPTANOATE],Odor Threshold,[3],1.75E−02 μg/l air
same,Odor Threshold (μg/l air),[1],1.75E−02 μg/l air
same,Odor Threshold (μg/l air),[2],1.75E−02 μg/l air
same,Odor Threshold,[4],1.75E−02 μg/l air
CC/C=C\CCOC(=O)C(C)CC (racemic) [(+−)-(Z)-3-HEXENYL 2-METHYLBUTANOATE],Odor Threshold,[3],1.96E−02 μg/l air
same,Odor Threshold,[4],1.96E−02 μg/l air
CC/C=C\CCOC(=O)C/C=C\CC [(3Z)-3-hexen-1-yl (3Z)-3-hexenoate],Odor Threshold,[3],5.17E−02 μg/l air
same,Odor Threshold (μg/l air),[1],5.17E−02 μg/l air
same,Odor Threshold (μg/l air),[2],5.17E−02 μg/l air
same,Odor Threshold,[4],5.17E−02 μg/l air
CCCCC/C(C=O)=C\c1ccccc1 [(E)-2-PENTYL-3-PHENYL-2-PROPENAL],Odor Threshold (μg/l air),[5],3.64E−04 μg/l air
C=CCCCCCCCCO [9-DECEN-1-OL],Odor Threshold (μg/l air),[5],8.92E−03 μg/l air
CC(C)=CC1CC(C)CCO1 (stereo not drawn),Odor Threshold,[3],8.77E−04 μg/l air
COc1nccnc1CCCC(C)C,Odor Threshold,[3],1.18E−07 μg/l air
COC(C)(C)[C@H]1CC=C(C)CC1,Odor Threshold,[3],1.99E−01 μg/l air
CC(=O)CCC1=C(C)CCCC1(C)C,Odor Threshold (μg/l air),[1],8.51E−03 μg/l air
same,Odor Threshold (μg/l air),[6],8.51E−03 μg/l air
CC1OCCC12NCCS2 (racemic),Odor Threshold (μg/l air),[1],2.53E−06 μg/l air
CC1CCC2(O1)C(C)(C)CCCC2(C)O (racemic),Odor Threshold (μg/l air),[6],5.15E−04 μg/l air
CCCC1CCCC(=O)O1 (racemic) [(+−)-6-propyltetrahydro-2H-pyran-2-one],Odor Threshold (μg/l air),[5],2.17E−04 μg/l air
CC(C)C(=O)OCCc1ccccc1 [2-PHENYLETHYL ISOBUTYRATE],Odor Threshold (μg/l air),[5],6.70E−03 μg/l air
same,Odor Threshold (μg/l air),[1],6.70E−03 μg/l air
same,Odor Threshold (μg/l air),[2],6.70E−03 μg/l air
CC(C)(O)CCC1CCCCC1 [4-CYCLOHEXYL-2-METHYL-2-BUTANOL],Odor Threshold (μg/l air),[5],2.83E−02 μg/l air
"CC(C)=CCCC(C)CCOC=O (racemic) [(+−)-3,7-DIMETHYL-6-OCTENYL FORMATE]",Odor Threshold,[3],1.72E−03 μg/l air
same,Odor Threshold,[4],1.72E−03 μg/l air
O=C1CCC2(CCCCC2)O1 [1-oxaspiro[4.5]decan-2-one],Odor Threshold (μg/l air),[2],2.90E−04 μg/l air
CC/C=C\CC1=C(C)CCC1=O,Odor Threshold (μg/l air),[1],2.16E−04 μg/l air
same,Odor Threshold (μg/l air),[2],2.16E−04 μg/l air
CCOC(=O)/C=C/c1ccccc1 [ETHYL (E)-3-PHENYL-2-PROPENOATE],Odor Threshold (μg/l air),[5],2.38E−05 μg/l air
COC(=O)/C=C/c1ccccc1 [METHYL (E)-3-PHENYL-2-PROPENOATE],Odor Threshold (μg/l air),[5],3.13E−03 μg/l air
"C=C(C)C1CC=C(C)CC1 (single isomer, unassigned; (+)) [(+)-LIMONENE]",Odor Threshold,[4],1.29E−01 μg/l air
"C=CC(C)(CCC=C(C)C)OC(C)=O (racemic) [(+−)-1,5-DIMETHYL-1-VINYL-4-HEXENYL ACETATE]",Odor Threshold,[3],7.40E−02 μg/l air
same,Odor Threshold,[4],7.40E−02 μg/l air
CC/C=C\CCOC=O [(Z)-3-HEXENYL FORMATE],Odor Threshold,[3],2.11E−03 μg/l air
same,Odor Threshold,[4],2.11E−03 μg/l air
C=CCSSCC=C [DIALLYL DISULFIDE],Odor Threshold (μg/l air),[1],3.98E−05 μg/l air
same,Odor Threshold (μg/l air),[2],3.98E−05 μg/l air
CC(CO)c1ccccc1 (racemic) [(+−)-2-phenyl-1-propanol],Odor Threshold,[3],3.62E−02 μg/l air
COc1ccc(CC(C)C=O)cc1 (racemic) [(+−)-3-(4-methoxyphenyl)-2-methylpropanal],Odor Threshold,[3],9.79E−03 μg/l air
CC(=O)CCc1ccc(O)cc1 [4-(4-HYDROXY-1-PHENYL)-2-BUTANONE],Odor Threshold (μg/l air),[5],2.05E−07 μg/l air
CC1=CCC(C(C)(C)O)CC1 (racemic) [(+−)-ALPHA-TERPINEOL],Odor Threshold (μg/l air),[6],1.03E−01 μg/l air
CCCCCC(=O)CC [3-OCTANONE],Odor Threshold,[4],4.53E−02 μg/l air
CCCCCCO [1-hexanol],Odor Threshold,[3],1.17E−01 μg/l air
C=CC(CCCCC)OC(C)=O (racemic) [(+−)-1-PENTYL-2-PROPENYL ACETATE],Odor Threshold,[4],4.84E−02 μg/l air
N#CC(=C1CCCCC1)c1ccccc1 [CYCLOHEXYLIDENE(PHENYL)ACETONITRILE],Odor Threshold,[3],3.31E−04 μg/l air
C/C=C/C(=O)C1=C(C)CCCC1(C)C,Odor Threshold (μg/l air),[5],2.18E−04 μg/l air
same,Odor Threshold (μg/l air),[6],2.18E−04 μg/l air
CC(C)[C@@H]1CC[C@@H](C)CC1=NO,Odor Threshold,[3],5.52E−05 μg/l air
CCc1occc(=O)c1O [2-ETHYL-3-HYDROXY-4(4H)-PYRANONE],Odor Threshold (μg/l air),[5],6.45E−05 μg/l air
same,Odor Threshold (μg/l air),[1],6.45E−05 μg/l air
CCC/C=C/C=O [(2E)-2-HEXENAL],Odor Threshold,[3],2.53E−03 μg/l air
same,Odor Threshold,[4],2.53E−03 μg/l air
COC(=O)OC1CC/C=C\CCC1 (racemic),Odor Threshold,[3],3.69E−04 μg/l air
COc1ccc(COC(C)=O)cc1 [4-METHOXYBENZYL ACETATE],Odor Threshold (μg/l air),[5],9.24E−05 μg/l air
CC(O)c1ccccc1 (stereo not drawn) [1-PHENYL-1-ETHANOL],Odor Threshold,[4],2.98E−01 μg/l air
"CC(=O)OC/C=C(\C)CCC=C(C)C [(E)-3,7-DIMETHYL-2,6-OCTADIENYL ACETATE]",Odor Threshold,[3],3.57E−02 μg/l air
same,Odor Threshold (μg/l air),[5],3.57E−02 μg/l air
"CCCc1ccc2c(c1)OCC(=O)CO2 [7-PROPYL-2H,4H-1,5-BENZODIOXEPIN-3-ONE]",Odor Threshold,[3],6.43E−05 μg/l air
"CC(=O)OC(C)CCC=C(C)CCC=C(C)C (stereo not drawn) [1,5,9-TRIMETHYL-4,8-DECADIENYL ACETATE]",Odor Threshold (μg/l air),[5],3.28E−04 μg/l air
CCCCCC(C#N)CCC (racemic) [(+−)-2-propylheptanenitrile],Odor Threshold,[4],7.83E−02 μg/l air
CC(CC=O)c1ccccc1 (racemic) [(+−)-3-PHENYLBUTANAL],Odor Threshold,[3],3.89E−04 μg/l air
"CCC(=O)OCC(C)(C)OC(C)C1CCCC(C)(C)C1 (single isomer, unassigned; (+))",Odor Threshold (μg/l air),[5],3.69E−04 μg/l air
"Cc1cnc(C)c(C)n1 [2,3,5-TRIMETHYLPYRAZINE]",Odor Threshold (μg/l air),[1],2.82E−04 μg/l air
CC/C(=C\C[C@H]1CC=C(C)C1(C)C)CO,Odor Threshold (μg/l air),[6],2.41E−05 μg/l air
CC1=C[C@H](C)[C@H]2[C@H](CCC(C)(C)[C@H]2O)C1 (racemic),Odor Threshold,[3],8.15E−04 μg/l air
same,Odor Threshold (μg/l air),[5],8.15E−04 μg/l air
CCC(C)C1(C)COC(C2CCC(C)=CC2C)OC1 (stereo not drawn),Odor Threshold (μg/l air),[6],1.67E−03 μg/l air
C/C=C/c1ccc(O)c(OC)c1 [2-methoxy-4-[(1E)-1-propen-1-yl]phenol],Odor Threshold (μg/l air),[1],6.63E−06 μg/l air
same,Odor Threshold (μg/l air),[2],6.63E−06 μg/l air
CCC(=O)CC(C)CC (stereo not drawn) [5-METHYL-3-HEPTANONE],Odor Threshold,[4],9.87E−02 μg/l air
CCOC(=O)C(=O)C(C)CC (racemic) [(+−)-ETHYL 3-METHYL-2-OXOPENTANOATE],Odor Threshold,[3],5.06E−04 μg/l air
same,Odor Threshold (μg/l air),[1],5.06E−04 μg/l air
CCC(=O)/C=C/C1=C(C)CCCC1(C)C,Odor Threshold (μg/l air),[1],1.16E−04 μg/l air
same,Odor Threshold (μg/l air),[2],1.16E−04 μg/l air
CCOC(=O)Cc1ccccc1 [ETHYL PHENYLACETATE],Odor Threshold,[4],4.19E−04 μg/l air
C=CCOC(=O)COc1ccccc1 [ALLYL PHENOXYACETATE],Odor Threshold,[3],1.22E−03 μg/l air
same,Odor Threshold (μg/l air),[5],1.22E−03 μg/l air
CCCC1CCC(=O)O1 (racemic) [(+−)-4-HEPTANOLIDE],Odor Threshold (μg/l air),[1],5.18E−04 μg/l air
N#C/C=C/c1ccccc1 [(E)-3-PHENYL-2-PROPENENITRILE],Odor Threshold (μg/l air),[6],8.97E−05 μg/l air
Cc1occc(=O)c1O [3-HYDROXY-2-METHYL-4(4H)-PYRANONE],Odor Threshold (μg/l air),[5],4.17E−04 μg/l air
same,Odor Threshold (μg/l air),[1],4.17E−04 μg/l air
C=C(C)CC(C(C)=O)C(=O)OCC (racemic),Odor Threshold,[3],3.64E−03 μg/l air
same,Odor Threshold,[4],3.64E−03 μg/l air
"CC(CC=O)CC(C)(C)C (racemic) [(+−)-3,5,5-TRIMETHYLHEXANAL]",Odor Threshold,[3],9.37E−03 μg/l air
CC/C=C\CCO [(Z)-3-HEXEN-1-OL],Odor Threshold,[3],1.13E−02 μg/l air
CC1C(C)(C)C2=C(C(=O)CCC2)C1(C)C (stereo not drawn),Odor Threshold (μg/l air),[6],4.57E−03 μg/l air

# — US11427783B2, “Perfuming compositions” (Firmenich SA, priority 2016, dated 2022)
